No constants are given. Whether binding was seen depends on the method and setting. For some of these results: A result given as binding can be weak or reduced; the word gives no strength.
Experiments:
Experiment in all cases: two-hybrid; Matchmaker Two-Hybrid System (Clontech); RGB1 as prey (AD, pGADT7), PXLGs as bait (BD, pGBKT7); with a self-activation test
[1] = target: PXLG1 (putative extra-large G protein 1) (rice)
[2] = target: PXLG2 (putative extra-large G protein 2) (rice) (UniProt Q2R941)
[3] = target: PXLG4 (putative extra-large G protein 4) (rice)
[4] = target: PXLG3 (putative extra-large G protein 3) (rice)

B1: RGB1 (rice heterotrimeric G protein Gβ subunit) (protein, UniProt Q40687 1-380)
chain: MASVAELKEKHAAATASVNSLRERLRQRRQMLLDTDVERYSRTQGRTPVSFNPTDLVCCRTLQGHSGKVYSLDWTPEKNWIVSASQDGRLIVWNALTSQKTHAIKLHCPWVMTCAFAPNGQSVACGGLDSACSIFNLNSQADRDGNIPVSRILTGHKGYVSSCQYVPDQETRLITSSGDQTCVLWDVTTGQRISIFGGEFPSGHTADVLSLSINSSNSNMFVSGSCDATVRLWDIRIASRAVRTYHGHEGDINSVKFFPDGQRFGTGSDDGTCRLFDVRTGHQLQVYSREPDRNDNELPTVTSIAFSISGRLLFAGYSNGDCYVWDTLLAEVVLNLGNLQNSHEGRISCLGLSSDGSALCTGSWDKNLKIWAFSGHRKIV
[1]
  binding: no binding
[2]
  binding: binds
[3]
  binding: no binding
[4]
  binding: no binding

Source: paper PMC7048073
